For three molecules, binding results are on record in article PMC10542384.

By UniProt entry, the sequences of proteins in these tests, tags left out.
UniProt P54132: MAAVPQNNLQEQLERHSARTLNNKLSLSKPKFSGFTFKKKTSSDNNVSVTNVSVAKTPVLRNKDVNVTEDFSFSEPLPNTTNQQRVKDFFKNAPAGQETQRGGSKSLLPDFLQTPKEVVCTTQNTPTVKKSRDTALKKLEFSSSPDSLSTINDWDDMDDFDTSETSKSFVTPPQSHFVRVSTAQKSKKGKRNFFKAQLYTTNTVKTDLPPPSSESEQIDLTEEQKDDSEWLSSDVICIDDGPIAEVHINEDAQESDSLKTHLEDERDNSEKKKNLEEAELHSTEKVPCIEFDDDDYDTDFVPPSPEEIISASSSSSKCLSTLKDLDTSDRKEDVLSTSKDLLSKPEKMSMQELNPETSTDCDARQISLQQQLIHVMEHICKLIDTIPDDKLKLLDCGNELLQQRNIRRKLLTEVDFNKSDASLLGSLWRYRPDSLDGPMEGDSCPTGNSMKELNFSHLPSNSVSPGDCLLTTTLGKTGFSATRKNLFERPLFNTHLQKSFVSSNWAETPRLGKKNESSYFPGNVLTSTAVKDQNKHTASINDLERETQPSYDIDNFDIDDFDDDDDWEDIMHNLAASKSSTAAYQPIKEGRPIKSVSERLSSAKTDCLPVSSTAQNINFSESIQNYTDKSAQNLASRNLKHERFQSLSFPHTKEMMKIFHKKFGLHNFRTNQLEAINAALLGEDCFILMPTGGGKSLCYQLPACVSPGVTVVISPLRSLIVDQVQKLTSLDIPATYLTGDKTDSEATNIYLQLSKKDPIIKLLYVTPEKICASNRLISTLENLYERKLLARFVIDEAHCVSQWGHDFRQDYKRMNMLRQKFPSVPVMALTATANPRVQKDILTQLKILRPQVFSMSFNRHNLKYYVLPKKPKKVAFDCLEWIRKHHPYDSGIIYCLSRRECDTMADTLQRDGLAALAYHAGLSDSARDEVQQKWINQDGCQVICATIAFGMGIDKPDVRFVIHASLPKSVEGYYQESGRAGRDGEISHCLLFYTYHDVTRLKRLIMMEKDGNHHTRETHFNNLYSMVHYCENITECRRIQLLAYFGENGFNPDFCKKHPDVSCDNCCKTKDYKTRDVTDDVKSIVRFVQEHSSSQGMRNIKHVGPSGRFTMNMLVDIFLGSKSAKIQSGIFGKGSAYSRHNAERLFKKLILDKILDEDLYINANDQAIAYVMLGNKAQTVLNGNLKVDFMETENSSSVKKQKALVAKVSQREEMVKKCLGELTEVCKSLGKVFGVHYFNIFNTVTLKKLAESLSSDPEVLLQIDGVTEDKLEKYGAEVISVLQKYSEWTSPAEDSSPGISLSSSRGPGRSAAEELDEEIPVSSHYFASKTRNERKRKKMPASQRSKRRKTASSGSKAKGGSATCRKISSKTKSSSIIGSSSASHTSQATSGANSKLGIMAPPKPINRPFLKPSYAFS

These are yes or no findings as the source states them, for the method shown. Binding seen in cells or lysates may run through a third protein. Some entries that bind do so weakly or less than the wild type. For some of these results: Sequences can lack the tags named with a protein.

Assay [1] addresses T1, HA-tagged RNF111 wild type (RNF111^WT) (UniProt Q6ZNA4).
T1 sequence: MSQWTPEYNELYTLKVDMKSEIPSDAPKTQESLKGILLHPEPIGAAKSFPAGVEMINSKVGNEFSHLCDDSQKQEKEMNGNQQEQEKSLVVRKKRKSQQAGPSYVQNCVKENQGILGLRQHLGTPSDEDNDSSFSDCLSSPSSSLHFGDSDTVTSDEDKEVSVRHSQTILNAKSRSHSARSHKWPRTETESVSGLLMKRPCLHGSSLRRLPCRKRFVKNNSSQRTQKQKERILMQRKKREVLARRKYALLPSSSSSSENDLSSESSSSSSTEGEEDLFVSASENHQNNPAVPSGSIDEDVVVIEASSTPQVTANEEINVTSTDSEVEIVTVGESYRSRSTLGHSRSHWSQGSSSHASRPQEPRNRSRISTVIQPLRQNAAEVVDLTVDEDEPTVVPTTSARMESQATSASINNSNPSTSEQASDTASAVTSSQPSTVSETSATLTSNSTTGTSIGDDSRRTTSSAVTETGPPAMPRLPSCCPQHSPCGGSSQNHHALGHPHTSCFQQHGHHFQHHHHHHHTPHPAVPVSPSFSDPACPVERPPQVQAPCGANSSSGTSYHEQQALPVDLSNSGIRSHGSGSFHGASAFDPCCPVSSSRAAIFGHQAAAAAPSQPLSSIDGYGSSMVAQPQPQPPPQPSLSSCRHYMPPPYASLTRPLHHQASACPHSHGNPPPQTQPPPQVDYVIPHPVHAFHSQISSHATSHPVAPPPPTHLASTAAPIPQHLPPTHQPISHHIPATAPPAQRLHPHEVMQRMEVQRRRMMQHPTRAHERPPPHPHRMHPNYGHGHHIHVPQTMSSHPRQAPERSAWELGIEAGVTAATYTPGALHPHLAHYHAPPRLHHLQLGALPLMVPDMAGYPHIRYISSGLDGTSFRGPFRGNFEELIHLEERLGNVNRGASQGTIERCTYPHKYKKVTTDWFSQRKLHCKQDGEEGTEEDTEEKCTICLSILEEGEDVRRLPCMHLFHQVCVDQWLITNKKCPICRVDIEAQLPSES
In words: co-IP; Flag/HA beads or antibodies on Protein A/G beads with lysates of 293T or U2OS cells in modified NETN buffer (20 mM Tris-HCl pH 7.6, 95 mM NaCl, 1 mM EDTA, 0.5% Nonidet P-40), 4 °C overnight, blot; Fig. 6j with or without the CK2 inhibitor TBB.

Assay [2] concerns the target T2, RNF111 (Arkadia) (human (endogenous in 293T, U2OS)) (UniProt Q6ZNA4).
T2 sequence: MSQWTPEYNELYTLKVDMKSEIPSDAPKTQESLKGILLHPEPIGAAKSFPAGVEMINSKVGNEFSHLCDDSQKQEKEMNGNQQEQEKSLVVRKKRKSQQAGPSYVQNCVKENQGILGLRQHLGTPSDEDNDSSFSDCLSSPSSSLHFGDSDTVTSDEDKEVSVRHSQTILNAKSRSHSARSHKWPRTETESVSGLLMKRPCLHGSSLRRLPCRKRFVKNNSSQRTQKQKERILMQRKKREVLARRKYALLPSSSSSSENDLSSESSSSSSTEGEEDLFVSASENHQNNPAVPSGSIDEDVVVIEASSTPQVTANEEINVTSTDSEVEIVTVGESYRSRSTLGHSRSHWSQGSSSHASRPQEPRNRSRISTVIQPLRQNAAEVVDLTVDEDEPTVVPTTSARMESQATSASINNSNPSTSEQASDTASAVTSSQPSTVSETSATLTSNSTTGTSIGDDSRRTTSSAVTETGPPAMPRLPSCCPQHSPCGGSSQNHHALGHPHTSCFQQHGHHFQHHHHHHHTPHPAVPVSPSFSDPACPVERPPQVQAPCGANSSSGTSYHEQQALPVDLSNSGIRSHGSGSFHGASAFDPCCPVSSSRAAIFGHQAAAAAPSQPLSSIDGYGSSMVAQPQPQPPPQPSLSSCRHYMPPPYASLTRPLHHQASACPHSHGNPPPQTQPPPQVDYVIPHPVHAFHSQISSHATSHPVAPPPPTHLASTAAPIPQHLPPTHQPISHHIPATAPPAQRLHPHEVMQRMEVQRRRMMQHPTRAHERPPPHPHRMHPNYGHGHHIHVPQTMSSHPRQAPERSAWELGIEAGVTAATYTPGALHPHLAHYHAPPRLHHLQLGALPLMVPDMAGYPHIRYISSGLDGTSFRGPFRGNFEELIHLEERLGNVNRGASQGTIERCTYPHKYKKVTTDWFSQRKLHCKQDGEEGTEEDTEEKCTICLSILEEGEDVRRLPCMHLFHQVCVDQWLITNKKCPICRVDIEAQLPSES
Put plainly: proximity ligation; Duolink PLA on fixed and permeabilised cells (U2OS WT or KO cells complemented with the named constructs; Fig. 4d and 5b in cells expressing GFP-PML).

The target of another assay is T3, GFP-ARKL1 (UniProt Q96B23).
T3 sequence: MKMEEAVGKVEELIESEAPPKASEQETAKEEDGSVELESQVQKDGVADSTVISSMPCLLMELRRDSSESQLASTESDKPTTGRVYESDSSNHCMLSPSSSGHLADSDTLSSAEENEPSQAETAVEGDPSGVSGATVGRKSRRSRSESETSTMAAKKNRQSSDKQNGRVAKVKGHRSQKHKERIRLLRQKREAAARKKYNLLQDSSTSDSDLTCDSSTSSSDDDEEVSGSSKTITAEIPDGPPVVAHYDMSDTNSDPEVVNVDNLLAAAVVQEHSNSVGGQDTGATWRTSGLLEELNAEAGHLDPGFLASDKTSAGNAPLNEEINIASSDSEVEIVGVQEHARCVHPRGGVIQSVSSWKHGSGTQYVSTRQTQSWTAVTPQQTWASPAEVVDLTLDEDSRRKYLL
In words: co-IP; Flag/HA beads or antibodies on Protein A/G beads with lysates of 293T or U2OS cells in modified NETN buffer (20 mM Tris-HCl pH 7.6, 95 mM NaCl, 1 mM EDTA, 0.5% Nonidet P-40), 4 °C overnight, blot; Fig. 6j with or without the CK2 inhibitor TBB.

For assay [3], the target named is T4, Arkadia-like 1 (ARKL1) (human (endogenous in U2OS)) (UniProt Q96B23).
T4 sequence: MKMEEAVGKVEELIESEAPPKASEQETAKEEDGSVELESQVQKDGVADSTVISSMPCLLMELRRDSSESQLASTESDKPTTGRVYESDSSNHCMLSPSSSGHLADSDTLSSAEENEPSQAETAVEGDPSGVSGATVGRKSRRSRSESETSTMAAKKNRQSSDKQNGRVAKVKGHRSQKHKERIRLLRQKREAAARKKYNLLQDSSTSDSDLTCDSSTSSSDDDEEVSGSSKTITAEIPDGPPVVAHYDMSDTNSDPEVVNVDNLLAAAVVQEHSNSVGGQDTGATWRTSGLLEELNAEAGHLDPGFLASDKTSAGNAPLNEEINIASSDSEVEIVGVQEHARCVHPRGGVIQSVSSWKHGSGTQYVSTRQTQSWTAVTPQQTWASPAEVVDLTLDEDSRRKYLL
In words: proximity ligation; Duolink PLA on fixed and permeabilised cells (U2OS WT or KO cells complemented with the named constructs; Fig. 4d and 5b in cells expressing GFP-PML).

For the molecule “Bloom syndrome helicase (BLM) (from UniProt P54132 1-1417)”, the binding result in assay [1] and in assay [2] was “binds” each time.

B1: HA-Flag-tagged RNF111 wild type (RNF111^WT) (protein, UniProt Q6ZNA4 1-994)
chain: MSQWTPEYNELYTLKVDMKSEIPSDAPKTQESLKGILLHPEPIGAAKSFPAGVEMINSKVGNEFSHLCDDSQKQEKEMNGNQQEQEKSLVVRKKRKSQQAGPSYVQNCVKENQGILGLRQHLGTPSDEDNDSSFSDCLSSPSSSLHFGDSDTVTSDEDKEVSVRHSQTILNAKSRSHSARSHKWPRTETESVSGLLMKRPCLHGSSLRRLPCRKRFVKNNSSQRTQKQKERILMQRKKREVLARRKYALLPSSSSSSENDLSSESSSSSSTEGEEDLFVSASENHQNNPAVPSGSIDEDVVVIEASSTPQVTANEEINVTSTDSEVEIVTVGESYRSRSTLGHSRSHWSQGSSSHASRPQEPRNRSRISTVIQPLRQNAAEVVDLTVDEDEPTVVPTTSARMESQATSASINNSNPSTSEQASDTASAVTSSQPSTVSETSATLTSNSTTGTSIGDDSRRTTSSAVTETGPPAMPRLPSCCPQHSPCGGSSQNHHALGHPHTSCFQQHGHHFQHHHHHHHTPHPAVPVSPSFSDPACPVERPPQVQAPCGANSSSGTSYHEQQALPVDLSNSGIRSHGSGSFHGASAFDPCCPVSSSRAAIFGHQAAAAAPSQPLSSIDGYGSSMVAQPQPQPPPQPSLSSCRHYMPPPYASLTRPLHHQASACPHSHGNPPPQTQPPPQVDYVIPHPVHAFHSQISSHATSHPVAPPPPTHLASTAAPIPQHLPPTHQPISHHIPATAPPAQRLHPHEVMQRMEVQRRRMMQHPTRAHERPPPHPHRMHPNYGHGHHIHVPQTMSSHPRQAPERSAWELGIEAGVTAATYTPGALHPHLAHYHAPPRLHHLQLGALPLMVPDMAGYPHIRYISSGLDGTSFRGPFRGNFEELIHLEERLGNVNRGASQGTIERCTYPHKYKKVTTDWFSQRKLHCKQDGEEGTEEDTEEKCTICLSILEEGEDVRRLPCMHLFHQVCVDQWLITNKKCPICRVDIEAQLPSES
Turning to B1, in the assay with GFP-ARKL1, the binding entry is reported as “binds”.

B2: HA-RNF111 wild type (HA-RNF111^WT) in RNF111 KO U2OS cells (protein, UniProt Q6ZNA4 1-994)
chain: MSQWTPEYNELYTLKVDMKSEIPSDAPKTQESLKGILLHPEPIGAAKSFPAGVEMINSKVGNEFSHLCDDSQKQEKEMNGNQQEQEKSLVVRKKRKSQQAGPSYVQNCVKENQGILGLRQHLGTPSDEDNDSSFSDCLSSPSSSLHFGDSDTVTSDEDKEVSVRHSQTILNAKSRSHSARSHKWPRTETESVSGLLMKRPCLHGSSLRRLPCRKRFVKNNSSQRTQKQKERILMQRKKREVLARRKYALLPSSSSSSENDLSSESSSSSSTEGEEDLFVSASENHQNNPAVPSGSIDEDVVVIEASSTPQVTANEEINVTSTDSEVEIVTVGESYRSRSTLGHSRSHWSQGSSSHASRPQEPRNRSRISTVIQPLRQNAAEVVDLTVDEDEPTVVPTTSARMESQATSASINNSNPSTSEQASDTASAVTSSQPSTVSETSATLTSNSTTGTSIGDDSRRTTSSAVTETGPPAMPRLPSCCPQHSPCGGSSQNHHALGHPHTSCFQQHGHHFQHHHHHHHTPHPAVPVSPSFSDPACPVERPPQVQAPCGANSSSGTSYHEQQALPVDLSNSGIRSHGSGSFHGASAFDPCCPVSSSRAAIFGHQAAAAAPSQPLSSIDGYGSSMVAQPQPQPPPQPSLSSCRHYMPPPYASLTRPLHHQASACPHSHGNPPPQTQPPPQVDYVIPHPVHAFHSQISSHATSHPVAPPPPTHLASTAAPIPQHLPPTHQPISHHIPATAPPAQRLHPHEVMQRMEVQRRRMMQHPTRAHERPPPHPHRMHPNYGHGHHIHVPQTMSSHPRQAPERSAWELGIEAGVTAATYTPGALHPHLAHYHAPPRLHHLQLGALPLMVPDMAGYPHIRYISSGLDGTSFRGPFRGNFEELIHLEERLGNVNRGASQGTIERCTYPHKYKKVTTDWFSQRKLHCKQDGEEGTEEDTEEKCTICLSILEEGEDVRRLPCMHLFHQVCVDQWLITNKKCPICRVDIEAQLPSES
Regarding B2, the binding result in assay [3] is recorded as “binds”.
